# Source: PubChem BioAssay AID624291 (National Center for Advancing Translational Sciences (NCATS), 2012)
# Hit rate of the full screen: of about 350,000 compounds, about 220 (0.063%) were called active. The shares of active, inactive and inconclusive entries below differ from those in the screen. Calls follow the shape of the dose curve; as a rule, active = well fitted activation curve with a large enough effect; inconclusive = small, poorly fitted or top-dose-only effect; inactive = no such curve, though single readings can be large or run the other way. Potencies of inconclusive entries are doubtful fits and often do not repeat.
# Test: qHTS for Activators of Integrin-Mediated Alleviation for Muscular Dystrophy; also: nearly all actives have a fitted effect of over 60% in size;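 as to activation: 100% = response of the positive control SU9516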
# Conditions: alpha7betagal myoblasts, beta-gal FDG fluorescence, 48 h; activation: at 38.3 µM (top of the series)
# In short: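 Alpha7betagal+/- myoblasts (passage 13) were plated 16-24 hr, then exposed to compounds (1:260 dilution of DMSO stock) for 48 hours at 37C. After MPER lysis, β-galactosidase reporter activity was read as FDG fluorescence (ex 480/em 540) after 30 minutes.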
# Potency is read from the fitted curve at half-maximal effect.
Structure (SMILES),Potency,activation
CC(C(=O)O)N(C(=O)c1ccccc1)c1ccc(F)cc1 (stereo unspecified),"inconclusive: 11.2 µM [activator, single point]",
N#Cc1ccc(S(=O)(=O)NC2CC2)cc1,inactive,
O=[N+]([O-])c1cc2c(cc1CN1CCN(CCOCCO)CC1)OCO2,"inconclusive: 28.2 µM [activator, single point]",
Cc1ccsc1C(=O)OCC(=O)Nc1cccc(S(=O)(=O)NC2=NCCCCC2)c1,"inconclusive: 28.2 µM [activator, single point]",
COc1cc(NC(=O)c2ccc([N+](=O)[O-])cc2)ccc1NC(=O)C(C)C,inactive,
O=C(Nc1cccc(NC(=O)c2ccco2)c1)c1cccc(Br)c1,"inconclusive: 3.16 µM [activator, single point]",
CN1CCC(N(C)S(=O)(=O)c2ccc(F)cc2F)CC1,"inconclusive: 10 µM [activator, partial curve, poor fit]",
CC(C#N)Sc1nnc(Nc2ccccc2)s1 (stereo unspecified),"inconclusive: 1.41 µM [activator, partial curve, poor fit]",
Cc1cccc(C)c1NC(=S)NCc1ccccc1,"inconclusive: 10 µM [activator, partial curve, poor fit]",
Cc1cccc(CN2CCCC(C(=O)N3CCc4ccccc4C3)C2)c1 (stereo unspecified),"inconclusive: 3.16 µM [activator, single point]",
Cc1ccc(S(=O)(=O)/N=C(/c2ccc(F)cc2)N2CCCC2)cc1,inactive,
O=S(=O)(Nc1ccc(O)c(NS(=O)(=O)c2ccccc2)c1)c1ccccc1,"inconclusive: 1.26 µM [activator, partial curve, poor fit]",
C/C(=N\NC(=O)c1ccccc1[N+](=O)[O-])c1c(O)cc(C)oc1=O,"inconclusive: 8.91 µM [activator, partial curve]",
CC(=O)c1c(C)[nH]c(C(=O)CSc2nnc3ccccn23)c1C,"inconclusive: 11.2 µM [activator, partial curve, poor fit]",
CCOC(=O)COc1ccc2ccccc2c1/C=C/[N+](=O)[O-],inactive,
CC(=O)c1sc(-c2cccc(Cl)c2)nc1C,"inconclusive: 1 µM [activator, partial curve, poor fit]",
Brc1c(CSc2nncn2-c2ccccc2)nc2sccn12,inactive,
Cn1c(=O)c2c(nc(Cc3ccc(N)cc3)n2C)n(C)c1=O,"inconclusive: 28.2 µM [activator, single point]",
COc1c(Cl)cc(Cl)cc1CNc1ccc(S(N)(=O)=O)cc1,"inconclusive: 1.41 µM [activator, single point]",
Cc1cc(NCc2ccccn2)n2ncc(-c3ccc(Cl)cc3)c2n1,"inconclusive: 5.01 µM [activator, single point]",
CCOc1cccc(NC(=O)/C(C#N)=C\c2cccnc2)c1,"inconclusive: 28.2 µM [activator, single point]",
O=C(N/N=C/c1ccco1)c1cc(=O)[nH]c2ccccc12,,inconclusive: -9.85% [activator]
CSc1nc(SCC(=O)O)c2sc3nc(-c4ccccc4)c4c(c3c2n1)CCC4,"inconclusive: 1.78 µM [activator, partial curve, poor fit]",
O=C(O)c1c(-c2ccccc2)nnc2ccccc12,"inconclusive: 2.82 µM [activator, partial curve, poor fit]",

# Another view of two compounds above.
Structure (SMILES)	Potency	activation
O=C(N/N=C/c1ccco1)c1cc(=O)[nH]c2ccccc12		inconclusive: -9.85% [activator]
CSc1nc(SCC(=O)O)c2sc3nc(-c4ccccc4)c4c(c3c2n1)CCC4	inconclusive: 1.78 µM [activator, partial curve, poor fit]	

# (more compounds)

Structure (SMILES),Potency,activation
Cc1ccccc1/C=N/Nc1nc2ccccc2[nH]1,"inconclusive: 22.4 µM [activator, single point]",
O=c1nc2ccccc2c2n1CC(CN1CCN(C(c3ccccc3)c3ccccc3)CC1)N2 (stereo unspecified),inactive,
COc1ccccc1NC(=O)CCS(=O)(=O)c1cc2c(cc1Cl)NC(=O)CO2,"inconclusive: 5.01 µM [activator, single point]",
N#Cc1ccccc1Sc1ccccc1N,,inactive: -18.5% [at 7.66 µM]
O=C(CCN1CCN(CCO)CC1)Nc1ccccc1,inactive,
CCOC(=O)c1cnc(-n2nc(C)cc2C)nc1NC1CCCC1,inactive,
O=C(Nc1ncc(Cc2ccccc2)s1)c1cccs1,inactive,
CCCOC(=O)c1ccc(-c2c(C)noc2-c2ccc(OC)cc2O)o1,"inconclusive: 31.6 µM [activator, partial curve, poor fit]",
COc1cc(NC(=O)COC(C)=O)c(C)cc1[N+](=O)[O-],"inconclusive: 4.47 µM [activator, single point]",
C[C@H](O)[C@@H]1C(=O)N2CCc3c([nH]c4ccccc34)[C@@H]2C[C@@H]1N(C)C(=O)NC1CCCCC1,inactive,
COc1ccccc1CNC(=O)CNC(=O)c1sc2ccccc2c1Cl,"inconclusive: 0.355 µM [activator, full curve, poor fit]",
Cc1ccc(S(=O)(=O)c2ncccc2[N+](=O)[O-])cc1,inactive,
COc1cccc(-c2n[nH]c3c2CCC3)c1,"inconclusive: 5.01 µM [activator, single point]",
COc1cccc(NC(=O)c2ccc3c(c2)CCCC3)c1,active: 5.62 µM,
O=c1[nH]c(/C=C/c2ccc(Br)cc2)nc2ccccc12,"inconclusive: 7.08 µM [activator, partial curve]",
C=CCn1c(-c2cccc(OC)c2)n[nH]c1=S,inactive,
CCOC(=O)c1c(NC(=O)C[n+]2ccc(Cc3ccccc3)cc2)sc(C)c1C,"inconclusive: 5.01 µM [activator, single point]",
CC(C(=O)OCC(=O)c1ccc([N+](=O)[O-])cc1)N1C(=O)C2C3CCC(C3)C2C1=O (stereo unspecified),inactive,
COc1ccc(C(=O)Nc2ccccc2C)cc1S(=O)(=O)N1CCOCC1,inactive,
CCN(C(=O)CSc1nccc(=O)[nH]1)c1cccc2ccccc12,"inconclusive: 28.2 µM [activator, single point]",
O=C(Nn1cnnc1)c1ccccc1Cl,"inconclusive: 11.2 µM [activator, single point]",
C=CCn1c(SCC(=O)Nc2cc(C)on2)nnc1-c1ccccc1F,"inconclusive: 5.01 µM [activator, single point]",
CCc1nc2c(cnn2-c2ccc(Cl)cc2)c(=O)n1-c1ccc2c(c1)OCCO2,inactive,
CCOc1ccc(N2C(=O)CC(N3CCN(c4ccccc4OC)CC3)C2=O)cc1 (stereo unspecified),"inconclusive: 5.01 µM [activator, single point]",

# Shown with bars between the fields: three of the compounds above
Structure (SMILES) | Potency | activation
O=C(N/N=C/c1ccco1)c1cc(=O)[nH]c2ccccc12 |  | inconclusive: -9.85% [activator]
O=C(O)c1c(-c2ccccc2)nnc2ccccc12 | inconclusive: 2.82 µM [activator, partial curve, poor fit] | 
COc1ccccc1CNC(=O)CNC(=O)c1sc2ccccc2c1Cl | inconclusive: 0.355 µM [activator, full curve, poor fit] | 

# Next part

Structure (SMILES),Potency,activation
CC(C)CC(=O)Nc1c2c(nn1-c1cccc(Cl)c1)CS(=O)C2 (stereo unspecified),"inconclusive: 14.1 µM [activator, single point]",
CC1CCN(C(=O)COC(=O)Cc2c[nH]c3ccccc23)CC1,inactive,
CC(=O)c1sc(N/N=C\c2ccc(N(C)C)cc2)nc1C,"inconclusive: 28.2 µM [activator, single point]",
C/C(=N\NC(=O)C(N)=O)c1cccc([N+](=O)[O-])c1,"inconclusive: 10 µM [activator, partial curve, poor fit]",
CN(C)S(=O)(=O)c1ccc(Cl)c(-c2nnc3n2CCCCC3)c1,"inconclusive: 5.01 µM [activator, single point]",
CCOC(=O)c1ccc(NC(=O)CSCCC(=O)O)cc1,"inconclusive: 5.62 µM [activator, partial curve, poor fit]",
CCOC(=O)Cc1csc(NC(=O)c2cc(-c3ccncc3)nc3ccccc23)n1,"inconclusive: 28.2 µM [activator, single point]",
COc1ccc(C(=O)NCc2nnc(SCC(=O)Nc3nc4ccc(C)cc4s3)o2)cc1OC,inactive,
O=C(c1ccco1)N1CCN(Cc2cccc([N+](=O)[O-])c2)CC1,"inconclusive: 15.8 µM [activator, single point]",
Cc1occc1C(=O)NN=C1C2CC3CC(C2)CC1C3,"inconclusive: 5.01 µM [activator, single point]",
COc1ccc(CN(CC2CCC(C(=O)O)CC2)C(=S)Nc2cc(C)ccc2C)cc1 (stereo unspecified),"inconclusive: 2.51 µM [activator, single point]",
Cc1nn(Cc2ccccc2Cl)c(C)c1C(=O)NCCN1C(=O)S/C(=C\c2ccccc2)C1=O,inactive,
CCCCn1nc(NC(=O)CC(C)C)c2cc3cc(OC)ccc3nc21,"inconclusive: 3.16 µM [activator, single point]",
Cc1ccc(N(CC(=O)NCC2CCCO2)S(=O)(=O)c2ccc(Cl)cc2)cc1C (stereo unspecified),"inconclusive: 10 µM [activator, partial curve, poor fit]",
O=[N+]([O-])c1ccccc1OCCCOc1cccc2cccnc12,inactive,
COc1ccccc1/C=C/C=N/N1CCN(Cc2cccc3ccccc23)CC1,inactive,
CC(C)CN(C(=O)CSc1nnnn1C)C1CCS(=O)(=O)C1 (stereo unspecified),"inconclusive: 10 µM [activator, partial curve]",
COc1ccccc1C(=O)NNC(=S)NC(=O)c1sc2ccccc2c1Cl,inactive,
Cc1ccc([C@H]2N[C@]3(CCCN(Cc4ccco4)C3=O)[C@H]3C(=O)N(Cc4ccccc4)C(=O)[C@@H]23)cc1,inactive,
CCCCNc1c(-c2ccc(OC)c(Sc3ccc(OC)cc3)c2)nc2ccc(Cl)cn12,"inconclusive: 5.01 µM [activator, single point]",
COC(=O)c1cn(C(=O)c2ccc(C)cc2)c2ccccc12,"inconclusive: 2 µM [activator, partial curve, poor fit]",
COc1ccc(C(=O)OCC(=O)c2ccc(C3CCCCC3)cc2)cc1,"inconclusive: 5.62 µM [activator, partial curve, poor fit]",
O=C(CCCCCn1c(=S)[nH]c2cc3c(cc2c1=O)OCO3)N1CCN(c2ccccc2)CC1,"inconclusive: 5.01 µM [activator, single point]",
